# Assays:
# human liver microsomes = assay: Glucuronidation assay: statin glucuronidation in human liver microsomes; assay type: in vitro ADME; conditions: preliminary data
# [1] = test system: CYP3A (SVA, AVA); CYP3A and CYP2C8 (CVA); assay: in vitro; conditions: human, human liver microsomes, pH 7.4
structure (smiles),measurement,setting,value
"CC(C)c1c(C(=O)Nc2ccccc2)c(-c2ccccc2)c(-c2ccc(F)cc2)n1CC[C@@H](O)C[C@@H](O)CC(=O)O [AVA, atorvastatin]",Relative Contribution of glucuronidation to overall metabolism,human liver microsomes,7
same,microsomal CLint,[1],50 µL/min/mg
